Cleaved PARP after 72 h of treatment

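The test systems are human melanoma cell lines, treated with two drugs together for 72 h and then stained and imaged. Each value is the cleaved-PARP-positive fraction of nuclei relative to DMSO-treated wells, in %, so that 100 equals the control and higher values mean more apoptosis. Every drug was used at one fixed concentration, the higher of two screened. These are primary screening values without error estimates. The marker varies much from line to line, for technical or biological reasons.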 Only some of the drugs and lines screened are listed, without regard to their results.

All values are for the listed drug together with MK-1775 (0.1 µM): C=CCn1c(=O)c2cnc(Nc3ccc(N4CCN(C)CC4)cc3)nc2n1-c1cccc(C(C)(C)O)n1

With COc1ccc2c(c1)CCC1C2CCC2(C)C(NCCCCCCN3C(=O)C=CC3=O)CCC12 (configuration not stated) at 2 µM the screen read WM1745: 706; SK-MEL-5: 114. Results for Cn1cnc2c(F)c(Nc3ccc(Br)cc3Cl)c(C(=O)NOCCO)cc21 at 0.075 µM are WM1745: 232; SK-MEL-5: 967. For C[C@]12O[C@H](C[C@]1(O)CO)n1c3ccccc3c3c4c(c5c6ccccc6n2c5c31)CNC4=O at 0.02 µM the values were WM1745: 192; SK-MEL-5: 359.

For COc1cc(N2CCC(N3CCN(C)CC3)CC2)ccc1Nc1ncc(Cl)c(Nc2ccccc2S(=O)(=O)C(C)C)n1 at 0.4 µM the values were WM1745: 377; SK-MEL-5: 315. Results for CCN(CC)CCNC(=O)c1c(C)[nH]c(/C=C2\C(=O)Nc3ccc(F)cc32)c1C at 2 µM are WM1745: 154; SK-MEL-5: 263. N.N.[Cl][Pt][Cl] at 8 µM gave WM1745: 149; SK-MEL-5: 464.

Results for NC(=O)c1ccc(N(C(N)=O)c2c(F)cccc2F)nc1-c1ccc(F)cc1F at 2 µM are WM1745: 128; SK-MEL-5: 247. For CN(C)S(=O)(=O)c1ccc2c(c1)/C(=C/c1cc3c([nH]1)CCCC3)C(=O)N2 at 2 µM the values were WM1745: 177; SK-MEL-5: 161. O=C(/C=C/c1cccnc1)NCCCCC1CCN(C(=O)c2ccccc2)CC1 at 0.05 µM gave WM1745: 143; SK-MEL-5: 30.2.

Cc1cc(Nc2cc(N3CCN(C)CC3)nc(/C=C/c3ccccc3)n2)n[nH]1 at 0.2 µM gave WM1745: 228; SK-MEL-5: 184. With Nc1ncn([C@H]2C[C@H](O)[C@@H](CO)O2)c(=O)n1 at 0.5 µM the screen read WM1745: 186; SK-MEL-5: 465. With O=C(O)C(=O)Nc1sc2c(c1C(=O)O)CCNC2 at 8.33 µM the screen read WM1745: 305; SK-MEL-5: 216.

O=C(Nc1cc(C(F)(F)F)cc(C(F)(F)F)c1)c1cc(Cl)ccc1O at 0.08 µM gave WM1745: 96.0; SK-MEL-5: 75.5. For C=CCNC1=C2C[C@@H](C)C[C@H](OC)[C@H](O)[C@@H](C)/C=C(\C)[C@H](OC(N)=O)[C@@H](OC)/C=C\C=C(/C)C(=O)NC(=CC1=O)C2=O at 0.01 µM the values were WM1745: 330; SK-MEL-5: 192. With CC1(C)NC(=O)N(c2ccc([N+](=O)[O-])c(C(F)(F)F)c2)C1=O at 5 µM the screen read WM1745: 300; SK-MEL-5: 62.7.

O=S(=O)(c1ccccc1)N(CC(F)(F)F)c1ccc(C(O)(C(F)(F)F)C(F)(F)F)cc1 at 7 µM gave WM1745: 242; SK-MEL-5: 209. Results for C/C(O)=C(\C#N)C(=O)Nc1cc(Br)ccc1Br at 10 µM are WM1745: 192; SK-MEL-5: 384. Cn1nnc2c(C(N)=O)ncn2c1=O at 10 µM gave WM1745: 173; SK-MEL-5: 215.

Results for N#CC[C@H](C1CCCC1)n1cc(-c2ncnc3[nH]ccc23)cn1 at 5 µM are WM1745: 189; SK-MEL-5: 194. CC(C)C[C@H](NC(=O)[C@H](Cc1ccccc1)NC(=O)c1cnccn1)B(O)O at 0.005 µM gave WM1745: 400; SK-MEL-5: 632. With O=C(Oc1ccc([N+](=O)[O-])cc1)N1CCC(C(O)(c2ccc3c(c2)OCO3)c2ccc3c(c2)OCO3)CC1 at 5 µM the screen read WM1745: 2130; SK-MEL-5: 391.

For COc1cc2c(Oc3ccc4[nH]c(C)cc4c3F)ncnc2cc1OCCCN1CCCC1 at 2 µM the values were WM1745: 246; SK-MEL-5: 168. Results for CCN(CC)CCCCNc1ncc2cc(-c3cc(OC)cc(OC)c3)c(NC(=O)NC(C)(C)C)nc2n1 at 0.5 µM are WM1745: 255; SK-MEL-5: 506. Results for Cc1cc([N+](=O)[O-])ccc1NS(=O)(=O)c1cc(Cl)ccc1Cl at 5 µM are WM1745: 133; SK-MEL-5: 278.

For Nc1nc(F)nc2c1ncn2[C@@H]1O[C@H](CO)[C@@H](O)[C@@H]1O at 1 µM the values were WM1745: 184; SK-MEL-5: 784. With Cc1ccc(Nc2nccc(N(C)c3ccc4c(C)n(C)nc4c3)n2)cc1S(N)(=O)=O at 2 µM the screen read WM1745: 418; SK-MEL-5: 269. With O=C(Nc1cccc(Cl)c1)Nc1ncc(CCNc2ncnc3ccsc23)s1 at 0.004 µM the screen read WM1745: 157; SK-MEL-5: 283.

For O=C(O)[C@@H]1[O][Sb](=[O])([O][Sb]2(=[O])[O][C@H]([C@H](O)CO)[C@H](O)[C@H](C(=O)O)[O]2)[O][C@H]([C@H](O)CO)[C@@H]1O (some centres not stated) at 10 µM the values were WM1745: 211; SK-MEL-5: 558. O=C(O)c1ccc2c(c1)nc(Nc1cccc(Cl)c1)c1ccncc12 at 2 µM gave WM1745: 134; SK-MEL-5: 94.5. With COc1cc(Nc2ncc(F)c(Nc3ccc4c(n3)NC(=O)C(C)(C)O4)n2)cc(OC)c1OC at 2 µM the screen read WM1745: 204; SK-MEL-5: 274.

CCCCCCCCCCCCCCCCCCOP(=O)([O-])OC1CC[N+](C)(C)CC1 at 2 µM gave WM1745: 206; SK-MEL-5: 483. For Cn1c(=O)n(-c2ccc(C(C)(C)C#N)cc2)c2c3cc(-c4cnc5ccccc5c4)ccc3ncc21 at 0.02 µM the values were WM1745: 329; SK-MEL-5: 90.7. Oc1cc(-c2nc(-c3ccccc3)[nH]c2-c2ccncc2)ccc1Cl at 1 µM gave WM1745: 322; SK-MEL-5: 266.

With CCCCCCCCCCCC1=C(O)C(=O)C=C(O)C1=O at 6 µM the screen read WM1745: 290; SK-MEL-5: 195. Results for CNC(=O)c1cc(Oc2ccc(NC(=O)Nc3ccc(Cl)c(C(F)(F)F)c3)cc2)ccn1 at 2 µM are WM1745: 130; SK-MEL-5: 267. With CC(C)CCN1c2nc(Nc3cc(F)c(O)c(F)c3)ncc2N(C)C(=O)C1C (configuration not stated) at 1 µM the screen read WM1745: 179; SK-MEL-5: 174.

The first 2 entries again:

{"second drug": "COc1ccc2c(c1)CCC1C2CCC2(C)C(NCCCCCCN3C(=O)C=CC3=O)CCC12 (configuration not stated) at 2 µM", "WM1745": 706, "SK-MEL-5": 114}
{"second drug": "Cn1cnc2c(F)c(Nc3ccc(Br)cc3Cl)c(C(=O)NOCCO)cc21 at 0.075 µM", "WM1745": 232, "SK-MEL-5": 967}

Values as published with doi:10.1371/journal.pone.0140310, rounded.